# Assay results published in article PMC3660353.
# No constants are given. Whether binding was seen depends on the method and setting. Some binding calls cover weakened binding; strength is not graded here.
# T1: endogenous claudin-1 in Huh-7.5 hepatoma cells (human (endogenous in Huh-7.5)), O95832
# T1 chain: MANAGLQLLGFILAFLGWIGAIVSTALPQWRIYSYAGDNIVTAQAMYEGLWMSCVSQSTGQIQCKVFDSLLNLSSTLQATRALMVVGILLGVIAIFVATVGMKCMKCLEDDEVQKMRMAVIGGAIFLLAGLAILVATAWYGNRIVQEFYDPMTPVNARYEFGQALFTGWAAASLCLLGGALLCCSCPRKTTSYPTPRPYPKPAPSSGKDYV
# T2: recombinant, full-length human claudin-1 (human), O95832
# T2 chain: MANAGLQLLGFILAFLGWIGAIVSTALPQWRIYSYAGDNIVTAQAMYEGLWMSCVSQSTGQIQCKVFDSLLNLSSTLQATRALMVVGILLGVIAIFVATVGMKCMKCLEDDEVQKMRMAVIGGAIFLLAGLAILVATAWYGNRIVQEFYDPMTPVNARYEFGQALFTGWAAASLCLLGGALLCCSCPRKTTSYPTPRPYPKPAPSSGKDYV
# Key:
# Details in all cases: remark: other sources report otherwise
# [1] = biological target: T1, endogenous claudin-1 in Huh-7.5 …; assay: non-reducing SDS-PAGE with immunoblot; Huh-7.5 cell lysate (PBS, 1% Triton-X100, 0.1% sodium deoxycholate, 0.1% SDS), 5 µg protein per well, blot with anti-claudin-1 (MH25)
# [2] = biological target: T2, recombinant, full-length human …; assay: SDS-PAGE with immunoblot; foscholine-10 extracted claudin-1, stained with an anti-hexahistidine tag antibody
# [3] = biological target: T2, recombinant, full-length human …; assay: SDS-PAGE (silver stain); claudin-1 solubilized in profoldin-8 and eluted from a nickel affinity column; both purified
# [4] = biological target: T2, recombinant, full-length human …; assay: AUC; claudin-1 in profoldin-8 micelles; sedimentation velocity, continuous c(s) distribution model (SEDFIT); both purified
Binder,binding [1],binding [2],binding [3],binding [4]
"endogenous claudin-1 in Huh-7.5 hepatoma cells, O95832 1-211 (protein) MANAGLQLLGFILAFLGWIGAIVSTALPQWRIYSYAGDNIVTAQAMYEGLWMSCVSQSTGQIQCKVFDSLLNLSSTLQATRALMVVGILLGVIAIFVATVGMKCMKCLEDDEVQKMRMAVIGGAIFLLAGLAILVATAWYGNRIVQEFYDPMTPVNARYEFGQALFTGWAAASLCLLGGALLCCSCPRKTTSYPTPRPYPKPAPSSGKDYV",binds,,,
"recombinant, full-length human claudin-1, O95832 1-211 (natural protein) MANAGLQLLGFILAFLGWIGAIVSTALPQWRIYSYAGDNIVTAQAMYEGLWMSCVSQSTGQIQCKVFDSLLNLSSTLQATRALMVVGILLGVIAIFVATVGMKCMKCLEDDEVQKMRMAVIGGAIFLLAGLAILVATAWYGNRIVQEFYDPMTPVNARYEFGQALFTGWAAASLCLLGGALLCCSCPRKTTSYPTPRPYPKPAPSSGKDYV",,binds,binds,binds
